The text below walks through data of patent US20260132200A1.

By UniProt entry, the sequences of proteins in these tests, tags left out. Where a name states a change or a piece, a line headed by the entry shows the natural chain unless it says otherwise.
UniProt P07766: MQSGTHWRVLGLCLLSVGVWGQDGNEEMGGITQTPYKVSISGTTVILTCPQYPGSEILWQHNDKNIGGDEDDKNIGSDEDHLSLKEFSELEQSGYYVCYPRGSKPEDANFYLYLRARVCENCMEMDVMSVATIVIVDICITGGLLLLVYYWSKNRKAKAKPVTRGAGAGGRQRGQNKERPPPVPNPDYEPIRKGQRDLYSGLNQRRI

The target in the experiment is human CD3 on Jurkat cells (CD3+, CD20- human T-cell line) (human) (UniProt P07766). The experiment is described as follows: FACS on Jurkat cells (CD3+, CD20-).

No constants are given. Whether binding was seen depends on the method and setting. Some results given as binding are weak or reduced against the parent protein; the word gives no strength.

B1: BS3/20-002 (bispecific antibody, V domains shown)
VH 1: EVQLVESGGGLVQPGRSLRLSCVASGFTFNDYAMHWVRQAPGKGLEWVSVISWNSDSIGYADSVKGRFTISRDNAKNSLYLQMHSLRAEDTALYYCAKDNHYGSGSYYYYQYGMDVWGQGTTVTVSS
VH 2: EVQLVESGGGLVQPGGSLRLSCAATGFTFDDFTMHWVRQAPGKGLEWVSGISWNSGSIGYVDSVKGRFTISRDNAKNSLYLQMNSLRAEDTALYYCAKDNSGYGYYYYGMDVWGQGTTVTVSS
VL: EIVMTQSPATLSVSPGERATLSCRASHSVSRNSAWYQQKPGQAPRLLIYGASTRATGIPARFSGSGSGTEFTLTISSLQSEDFAIYYCQQYNNWPLTFGGGTKVEIK
Consider B1, for which the binding entry is recorded as “binds”.
